Legend:
dried Cannabis flower = experiment: Dry flower phytochemical profiling after chlorine dioxide gas treatment; conditions: 18 hours
[1] = Chlorine dioxide gas concentration monitored in treated space
[2] = test system: fresh and dried Cannabis flower; experiment: Terpene smell to the human nose of treated flower
Cannabis plants = experiment: Plant tissue analysis of leaves (nutrients and total chloride), Trial 1; assay type: in vivo; conditions: for Boron (B) / Calcium (Ca) / Copper (Cu) / Iron (Fe) / Magnesium (Mg) / Manganese (Mn) / Nitrate / Phosphate / Potash (K) / Sodium (Na) / Sulfur (S) / Zinc (Zn): After, 1.9 mg chlorine dioxide per cubic foot, 18 hours
[3] = dose 10 mg chlorine dioxide gas/100 grams of flower
[4] = dose 14 mg chlorine dioxide gas/100 grams of flower
[5] = dose 25 mg chlorine dioxide gas/100 grams of flower
[6] = dose 50 mg chlorine dioxide gas/100 grams of flower

In the case of [O][Cl+][O-] [chlorine dioxide], the “CBD Changes in Wt. % from control” value (dried Cannabis flower; [3]) is reported as −0.17 Wt. %, the “CBD Weight %” value (dried Cannabis flower; [3]) is reported as 0.00 Weight % and the “THC Changes in Wt. % from control” value (dried Cannabis flower; [3]) is reported as −0.14 Wt. %. The “THC Weight %” value (dried Cannabis flower; [3]) was 15.03 Weight %, the “Total Cannabinoid Changes in Wt. % from control” value (dried Cannabis flower; [3]) was −0.45 Wt. % and the “Total Cannabinoid Weight %” value (dried Cannabis flower; [3]) was 17.11 Weight %. For the same compound, the “Total Terpene Changes in Wt. % from control” value (“Total Terpene Changes in Wt. %” for short) (dried Cannabis flower; [3]) was 0.04 Wt. %, the “Total Terpene Weight %” value (dried Cannabis flower; [3]) was 0.80 Weight % and the “CBD Changes in Wt. % from control” value (dried Cannabis flower; [4]) was −0.12 Wt. %. The “CBD Weight %” value (dried Cannabis flower; [4]) was 0.05 Weight %, the “THC Changes in Wt. % from control” value (dried Cannabis flower; [4]) was 1.02 Wt. % and the “THC Weight %” value (dried Cannabis flower; [4]) was 16.19 Weight %. For the same compound, the “Total Cannabinoid Changes in Wt. % from control” value (dried Cannabis flower; [4]) was 1.04 Wt. %, the “Total Cannabinoid Weight %” value (dried Cannabis flower; [4]) was 18.60 Weight % and the “Total Terpene Changes in Wt. %” value (dried Cannabis flower; [4]) was −0.07 Wt. %. For the same compound, the “Total Terpene Weight %” value (dried Cannabis flower; [4]) was 0.69 Weight %, the “CBD Changes in Wt. % from control” value (dried Cannabis flower; [5]) was −0.16 Wt. % and the “CBD Weight %” value (dried Cannabis flower; [5]) was 0.01 Weight %. For the same compound, the “THC Changes in Wt. % from control” value (dried Cannabis flower; [5]) was 0.76 Wt. %, the “THC Weight %” value (dried Cannabis flower; [5]) was 15.93 Weight % and the “Total Cannabinoid Changes in Wt. % from control” value (dried Cannabis flower; [5]) was 0.72 Wt. %. The “Total Cannabinoid Weight %” value (dried Cannabis flower; [5]) was 18.28 Weight %, the “Total Terpene Changes in Wt. %” value (dried Cannabis flower; [5]) was 0.06 Wt. % and the “Total Terpene Weight %” value (dried Cannabis flower; [5]) was 0.82 Weight %. The “CBD Changes in Wt. % from control” value (dried Cannabis flower; [6]) was −0.16 Wt. %, the “CBD Weight %” value (dried Cannabis flower; [6]) was 0.01 Weight % and the “THC Changes in Wt. % from control” value (dried Cannabis flower; [6]) was 0.20 Wt. %. For the same compound, the “THC Weight %” value (dried Cannabis flower; [6]) was 15.37 Weight %, the “Total Cannabinoid Changes in Wt. % from control” value (dried Cannabis flower; [6]) was −0.04 Wt. % and the “Total Cannabinoid Weight %” value (dried Cannabis flower; [6]) was 17.52 Weight %. The “Total Terpene Changes in Wt. %” value (dried Cannabis flower; [6]) was 0.02 Wt. %, the “Total Terpene Weight %” value (dried Cannabis flower; [6]) was 0.78 Weight % and the “measured maximum chlorine dioxide concentration” value ([1]; Trial 1, 1.9 mg per cubic foot, 1550 cubic feet, 4 plants) was “about 16 ppmv”. The “measured maximum chlorine dioxide concentration” value ([1]; Trial 2, 0.45 mg per cubic foot, 840 healthy flowering plants) was “about 1.2 ppmv”, the “chlorine dioxide smell during treatment” value ([1]; Trial 3, 18-hour treatment period) was “there was no chlorine dioxide smell” and the “terpene smell to the human nose” value ([2]; dose of 50 mg) was “the terpene smell was diminished to the human nose”. For the same compound, the “terpene smell to the human nose” value ([2]; dose of 725 mg (so in the source)) was “the terpene smell was diminished to the human nose”, the “chloride levels of leaf tissues, before vs after treatment” value (Cannabis plants; Trial 1) was “remained unchanged” and the “Boron (B)” value (Cannabis plants; Trial 1, Flowering Plants) was 65 ppm. For the same compound, the “Calcium (Ca)” value (Cannabis plants; Trial 1, Flowering Plants) was 2.8%, the “Copper (Cu)” value (Cannabis plants; Trial 1, Flowering Plants) was 9.7 ppm and the “Iron (Fe)” value (Cannabis plants; Trial 1, Flowering Plants) was 150 ppm. The “Magnesium (Mg)” value (Cannabis plants; Trial 1, Flowering Plants) was 0.94%, the “Manganese (Mn)” value (Cannabis plants; Trial 1, Flowering Plants) was 52 ppm and the Nitrate (Cannabis plants; Trial 1, Flowering Plants) was 5400 ppm. The Phosphate (Cannabis plants; Trial 1, Flowering Plants) was 2400 ppm, the “Potash (K)” value (Cannabis plants; Trial 1, Flowering Plants) was 3.1% and the “Sodium (Na)” value (Cannabis plants; Trial 1, Flowering Plants) was 0.02%. For the same compound, the “Sulfur (S)” value (Cannabis plants; Trial 1, Flowering Plants) was 0.23%, the “Zinc (Zn)” value (Cannabis plants; Trial 1, Flowering Plants) was 39 ppm and the “Boron (B)” value (Cannabis plants; Trial 1, Veg plants) was 92 ppm. The “Calcium (Ca)” value (Cannabis plants; Trial 1, Veg plants) was 3.8%, the “Copper (Cu)” value (Cannabis plants; Trial 1, Veg plants) was 7.5 ppm and the “Iron (Fe)” value (Cannabis plants; Trial 1, Veg plants) was 200 ppm. For the same compound, the “Magnesium (Mg)” value (Cannabis plants; Trial 1, Veg plants) was 1.2%, the “Manganese (Mn)” value (Cannabis plants; Trial 1, Veg plants) was 35 ppm and the Nitrate (Cannabis plants; Trial 1, Veg plants) was 12700 ppm. For the same compound, the Phosphate (Cannabis plants; Trial 1, Veg plants) was 2800 ppm, the “Potash (K)” value (Cannabis plants; Trial 1, Veg plants) was 2.9% and the “Sodium (Na)” value (Cannabis plants; Trial 1, Veg plants) was 0.02%. The “Sulfur (S)” value (Cannabis plants; Trial 1, Veg plants) was 0.27% and the “Zinc (Zn)” value (Cannabis plants; Trial 1, Veg plants) was 51 ppm.
